Experimental data as given in PMC4381287, “Structural characterization of the late competence protein ComFB from Bacillus subtilis” (Bioscience Reports, 2014).
Results are given in words; binding and its absence hold for the method and conditions named. Sequences can lack the tags named with a protein.

Legend:
Experiment in all cases: SEC; Superdex75 10/300 column, calibrated with standards of known molecular weight; wild type and variants at similar concentrations; both purified
[1] = target: ComFB N4K variant, histidine-tagged (B. subtilis) (UniProt P39146)
[2] = target: ComFB E7K variant, histidine-tagged (B. subtilis) (UniProt P39146)
[3] = target: ComFB Y46F variant, histidine-tagged (B. subtilis) (UniProt P39146)

B1: ComFB N4K variant, histidine-tagged (protein, UniProt P39146 1-98)
chain: MLVKSKEIVMKELLDRYMDQLHMACTCQVCQNDVLALSLNKVSPSYVTDFKKIAYTKAELVDKQKNTAMLVILAESAAVVSESPSDLCQTKQEEAFIN
binding [1]: no binding

B2: ComFB E7K variant, histidine-tagged (protein, UniProt P39146 1-98)
chain: MLVNSKKIVMKELLDRYMDQLHMACTCQVCQNDVLALSLNKVSPSYVTDFKKIAYTKAELVDKQKNTAMLVILAESAAVVSESPSDLCQTKQEEAFIN
binding [2]: no binding

B3: ComFB Y46F variant, histidine-tagged (protein, UniProt P39146 1-98)
chain: MLVNSKEIVMKELLDRYMDQLHMACTCQVCQNDVLALSLNKVSPSFVTDFKKIAYTKAELVDKQKNTAMLVILAESAAVVSESPSDLCQTKQEEAFIN
binding [3]: no binding
